Results are given in words; binding and its absence hold for the method and conditions named. In cells and extracts the contact can be indirect. Some entries that bind do so weakly or less than the wild type.

Protein sequences, listed by entry. Tags and fused reporters are not part of them. Residues count along the entry.
UniProt Q7TQN4: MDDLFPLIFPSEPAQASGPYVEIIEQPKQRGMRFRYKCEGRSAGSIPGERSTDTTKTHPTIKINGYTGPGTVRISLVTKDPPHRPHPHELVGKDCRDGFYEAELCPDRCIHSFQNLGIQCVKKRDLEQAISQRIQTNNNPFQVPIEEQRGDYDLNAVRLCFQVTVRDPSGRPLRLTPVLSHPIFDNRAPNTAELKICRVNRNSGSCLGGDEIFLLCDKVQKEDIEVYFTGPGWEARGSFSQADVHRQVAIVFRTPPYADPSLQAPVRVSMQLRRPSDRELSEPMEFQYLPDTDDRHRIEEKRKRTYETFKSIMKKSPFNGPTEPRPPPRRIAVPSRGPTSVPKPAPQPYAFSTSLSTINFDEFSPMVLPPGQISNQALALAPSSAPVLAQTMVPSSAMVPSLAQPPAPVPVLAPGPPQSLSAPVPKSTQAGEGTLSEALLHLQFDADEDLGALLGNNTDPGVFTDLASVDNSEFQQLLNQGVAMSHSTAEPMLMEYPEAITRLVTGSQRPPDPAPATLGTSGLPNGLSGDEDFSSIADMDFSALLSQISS
UniProt Q63369, residues 1-483: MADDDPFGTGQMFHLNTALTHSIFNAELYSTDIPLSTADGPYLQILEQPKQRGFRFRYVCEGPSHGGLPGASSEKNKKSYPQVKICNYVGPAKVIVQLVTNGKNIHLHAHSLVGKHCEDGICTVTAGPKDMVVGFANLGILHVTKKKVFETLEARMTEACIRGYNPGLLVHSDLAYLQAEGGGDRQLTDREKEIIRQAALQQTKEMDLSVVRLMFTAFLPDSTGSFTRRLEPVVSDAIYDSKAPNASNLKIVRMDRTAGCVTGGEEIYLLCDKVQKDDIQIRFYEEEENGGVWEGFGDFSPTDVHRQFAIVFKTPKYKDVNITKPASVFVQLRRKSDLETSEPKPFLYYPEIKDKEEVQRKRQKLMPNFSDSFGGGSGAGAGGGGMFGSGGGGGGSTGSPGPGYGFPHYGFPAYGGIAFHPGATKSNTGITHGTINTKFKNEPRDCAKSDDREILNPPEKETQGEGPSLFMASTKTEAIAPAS

The target of the assay is p65 subunit of NF-κB (rat (endogenous in primary astrocytes)) (UniProt Q7TQN4). In words: co-IP; lysates of primary cultured astrocytes transfected with wild-type- or ΔNLS-Ref-1 and treated with LPS for the times indicated; precipitated with anti-p65 antibody and protein G-A agarose beads overnight at 4 °C; immunoblot for p50. On the technique in general: In western blotting, separated proteins are transferred to a membrane and probed.

Consider “p50, a NF-κB subunit (from UniProt Q63369 1-483)”, for which the binding entry is recorded as “binds”.
